# These are yes or no findings as the source states them, for the method shown. Binding seen in cells or lysates may run through a third protein. A result given as binding can be weak or reduced; the word gives no strength.
# Target: T1, MEL_369 (melbournevirus)
# T1 sequence: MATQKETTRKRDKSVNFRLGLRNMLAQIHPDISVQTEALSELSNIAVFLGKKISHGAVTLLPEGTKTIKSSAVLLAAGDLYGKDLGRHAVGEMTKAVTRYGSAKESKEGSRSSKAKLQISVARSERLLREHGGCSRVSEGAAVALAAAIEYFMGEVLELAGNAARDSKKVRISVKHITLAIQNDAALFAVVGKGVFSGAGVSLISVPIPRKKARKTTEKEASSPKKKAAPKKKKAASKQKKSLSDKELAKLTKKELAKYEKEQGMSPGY
# Assay: cross-linking; intact melbournevirus particles in PBS cross-linked with 5 mM DSSO, 30 min, room temperature, quenched with Tris; then sucrose gradient, digestion, LC-MS; 1% FDR at residue-pair level; PPIs kept only if seen in all three biological replicates
substance,measurement,value
MEL_206 (melbournevirus),binding,binds

# Reference: article PMC13365592
